In this assay the target is AHSA1 (human) (UniProt O95433). In words: co-IP; Fig. 4G; cells and precipitated protein not told in the legend.

Sequences of proteins named here, by UniProt entry; tags and fusion partners are left off.
UniProt O95433: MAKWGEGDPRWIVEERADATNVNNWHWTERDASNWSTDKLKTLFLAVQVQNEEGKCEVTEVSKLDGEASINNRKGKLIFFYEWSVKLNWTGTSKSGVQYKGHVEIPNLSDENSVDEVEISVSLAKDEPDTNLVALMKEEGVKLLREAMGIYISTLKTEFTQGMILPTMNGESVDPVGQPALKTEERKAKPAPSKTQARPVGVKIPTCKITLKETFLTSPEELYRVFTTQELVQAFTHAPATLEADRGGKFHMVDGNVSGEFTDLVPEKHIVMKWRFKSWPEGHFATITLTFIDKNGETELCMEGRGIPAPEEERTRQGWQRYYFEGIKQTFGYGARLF
UniProt Q00534: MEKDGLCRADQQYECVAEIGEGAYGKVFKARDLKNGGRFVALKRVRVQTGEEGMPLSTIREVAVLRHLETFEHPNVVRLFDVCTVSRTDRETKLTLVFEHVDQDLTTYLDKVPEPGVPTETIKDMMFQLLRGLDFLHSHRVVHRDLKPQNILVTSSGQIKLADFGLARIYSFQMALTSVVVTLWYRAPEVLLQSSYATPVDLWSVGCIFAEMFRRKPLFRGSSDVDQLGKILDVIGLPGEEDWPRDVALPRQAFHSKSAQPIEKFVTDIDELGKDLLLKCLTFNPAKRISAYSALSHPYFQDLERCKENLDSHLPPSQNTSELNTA
UniProt Q13200: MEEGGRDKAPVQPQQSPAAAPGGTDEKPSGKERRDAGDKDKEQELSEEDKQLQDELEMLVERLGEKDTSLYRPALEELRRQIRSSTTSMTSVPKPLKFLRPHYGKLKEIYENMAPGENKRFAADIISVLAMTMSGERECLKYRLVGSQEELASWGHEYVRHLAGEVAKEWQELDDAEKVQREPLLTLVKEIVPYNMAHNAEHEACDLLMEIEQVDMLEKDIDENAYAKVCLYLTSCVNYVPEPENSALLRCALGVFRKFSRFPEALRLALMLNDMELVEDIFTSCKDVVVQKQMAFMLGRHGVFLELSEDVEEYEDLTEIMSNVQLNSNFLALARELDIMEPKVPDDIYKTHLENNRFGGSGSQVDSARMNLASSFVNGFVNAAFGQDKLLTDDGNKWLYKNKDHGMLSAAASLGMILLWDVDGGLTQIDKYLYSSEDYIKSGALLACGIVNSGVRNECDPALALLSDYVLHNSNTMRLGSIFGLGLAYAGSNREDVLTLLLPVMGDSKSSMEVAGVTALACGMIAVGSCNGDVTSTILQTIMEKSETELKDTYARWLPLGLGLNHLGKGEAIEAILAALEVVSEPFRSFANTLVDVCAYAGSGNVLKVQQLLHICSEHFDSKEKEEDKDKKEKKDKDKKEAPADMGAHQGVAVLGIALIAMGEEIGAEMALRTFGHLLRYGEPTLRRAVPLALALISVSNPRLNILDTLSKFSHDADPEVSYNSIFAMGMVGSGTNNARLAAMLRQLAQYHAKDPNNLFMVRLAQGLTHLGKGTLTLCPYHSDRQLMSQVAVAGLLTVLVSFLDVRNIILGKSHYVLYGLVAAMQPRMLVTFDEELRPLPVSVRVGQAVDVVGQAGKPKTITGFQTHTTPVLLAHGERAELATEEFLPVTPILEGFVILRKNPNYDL

No constants are given. Whether binding was seen depends on the method and setting. Binding seen in cells or lysates may run through a third protein. Some results given as binding are weak or reduced against the parent protein; the word gives no strength.

Regarding CDK6 (from UniProt Q00534 1-326), the binding entry is “binds”.

Consider PSMD2 (from UniProt Q13200 1-908), for which the binding entry is “binds”.

With “the activated form of CDK6, phosphorylation of Y13 site at CDK6 (from UniProt Q00534 1-326)”, the binding result is on record as “binds”.

The record behind these values is article PMC10114437.
